In publication PMC9508819, “Rbp95 binds to 25S rRNA helix H95 and cooperates with the Npa1 complex during early pre-60S particle maturation”:
No constants are given. Whether binding was seen depends on the method and setting. In cells and extracts the contact can be indirect. A yes stands for co-enrichment or nearness to the bait. Other partners may have been found.

T1: Noc2-TAP (S. cerevisiae) (UniProt P39744)
T1 sequence: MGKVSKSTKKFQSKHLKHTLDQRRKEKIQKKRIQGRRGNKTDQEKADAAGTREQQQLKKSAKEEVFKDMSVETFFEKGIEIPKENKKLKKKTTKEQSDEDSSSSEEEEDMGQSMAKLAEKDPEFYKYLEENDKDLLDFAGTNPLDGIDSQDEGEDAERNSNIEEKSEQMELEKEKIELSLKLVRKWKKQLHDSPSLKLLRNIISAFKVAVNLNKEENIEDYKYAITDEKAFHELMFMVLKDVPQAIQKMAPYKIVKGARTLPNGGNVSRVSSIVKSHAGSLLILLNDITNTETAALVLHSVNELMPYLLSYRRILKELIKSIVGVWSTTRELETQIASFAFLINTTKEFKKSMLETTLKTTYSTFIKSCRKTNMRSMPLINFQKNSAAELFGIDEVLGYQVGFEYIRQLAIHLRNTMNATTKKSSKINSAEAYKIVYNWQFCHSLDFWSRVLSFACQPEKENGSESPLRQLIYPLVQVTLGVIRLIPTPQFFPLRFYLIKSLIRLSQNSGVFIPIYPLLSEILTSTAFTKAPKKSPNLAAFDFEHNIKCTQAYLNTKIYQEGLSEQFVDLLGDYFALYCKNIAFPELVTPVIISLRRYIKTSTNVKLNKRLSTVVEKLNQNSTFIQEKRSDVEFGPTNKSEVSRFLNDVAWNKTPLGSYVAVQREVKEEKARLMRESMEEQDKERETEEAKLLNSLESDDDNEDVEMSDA

T2: Rbp95-TAP (S. cerevisiae) (UniProt P25617)
T2 sequence: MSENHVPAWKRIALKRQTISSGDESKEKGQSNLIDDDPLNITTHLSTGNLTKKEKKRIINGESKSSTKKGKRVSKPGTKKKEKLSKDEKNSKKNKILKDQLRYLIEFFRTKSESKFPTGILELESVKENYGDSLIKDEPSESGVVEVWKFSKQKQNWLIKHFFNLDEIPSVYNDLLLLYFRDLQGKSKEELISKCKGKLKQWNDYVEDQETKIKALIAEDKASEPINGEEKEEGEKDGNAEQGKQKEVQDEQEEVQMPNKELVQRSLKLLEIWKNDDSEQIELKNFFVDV

T3: Rbp95-TurboID (S. cerevisiae) (UniProt P25617)
T3 sequence: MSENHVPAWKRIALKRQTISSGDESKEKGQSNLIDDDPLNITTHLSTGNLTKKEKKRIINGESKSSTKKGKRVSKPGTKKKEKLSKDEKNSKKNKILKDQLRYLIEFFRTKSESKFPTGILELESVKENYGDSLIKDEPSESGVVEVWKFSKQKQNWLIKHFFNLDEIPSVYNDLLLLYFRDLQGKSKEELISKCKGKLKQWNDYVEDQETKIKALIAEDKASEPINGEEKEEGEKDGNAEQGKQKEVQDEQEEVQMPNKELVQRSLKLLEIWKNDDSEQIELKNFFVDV


How the values were obtained:
Noc2-TAP (S. cerevisiae) = target: T1, Noc2-TAP (S. cerevisiae); assay: affinity purification with mass spectrometry; tandem-affinity purification from yeast lysate, elution from Calmodulin Sepharose with 0.8% ammonium hydroxide; label-free semi-quantitative LC-MS/MS (LFQ, MaxQuant); for Figure 8A, B from wild-type and Δrbp95 strains
[1] = target: T2, Rbp95-TAP (S. cerevisiae); assay: as above
[2] = target: T3, Rbp95-TurboID (S. cerevisiae); assay: proximity labelling; TurboID: C-terminally TurboID-tagged bait from the CUP1 promoter in yeast, 500 uM copper sulfate and biotin for 1 h; biotinylated proteins purified on streptavidin agarose, LC-MS/MS; enrichment against NLS-GFP-TurboID control

Row | binding (Noc2-TAP (S. cerevisiae)) | binding [1] | binding [2] | Binder
1 | binds | binds | binds | Sda1 (protein, UniProt P53313 1-767) MGRRSRAAMLPTNIILLQNLVKRDPESYQEEFLQQYAHYESLRDIFMLNGLAGGDSAAATNGLDVGNGSSTMAGTNGTTMSTSTSQLIELVGFVSQVCSCFPRETANFPSELKQLLLEHHKSLPFELKEKILSCLTMLRNKDVITAEELIQSLFPLLVAYSSHGNSLGVNSHAKELRKIIYTNLISLLKSCNTNGKNQKLNKSTQAVCFNLLDQPDSQGIWATKLTRELWRRGIWDDSRTVEIMTQAALHQDVKIVMSGVMFFLDADREREENFEENSEDEDGFDLDALRHKMQVNKKTGRRGKKLENAIKTVKKKKKNGPGAPQGYLNFSAIHLLRDPQGFAEKLFKEHLSGKTKNKFDMEQKISLMQLLSRLIGTHKLIVLGIYTFFLKYLTPKQRDVTRIMSACAQACHDLVPPEVINVMVRKIADEFVSDGVANEVAAAGINTIREICSRAPLAIDEILLQDLVEYKGSKAKGVNMAAKSLIALYRDVAPEMLKKKDRGKNAAMEVQEAKKGGKDSKRPQFGADNSVQGIAGIELLAKWKKEHGEESENEDADANWEVDVDSEEDDVDGEWVTMDSDKEYDVDMEDSDDEKDNAKGKESDSDLELSDDDDEKEVKDEQEDADIDPEAAFREIASTRILTPADFAKLQELRNEESVAKIMGIHKQDKREELVDASTLTGPIKYKQSREERLQKVLEGREGRDKFGSRRGKRDNMRSTTNREKERRKNFVMSIHKRSVRGKQKMSLRDKQKVLRAHITKQKKKGY
2 | binds | binds | binds | Dbp7 (enzyme, UniProt P36120 1-742) MSDEDSMLLNFTTNEDTAGSSYKQAAKVTGGRWKDRRRMKMKLEGKTVSRKRKANTTGDEGIIPGRGENSIKKLHKESSYSSEEQEKYKGRNAHNTQGRTLPADSQFVSSLFTSNREITTAVNTNIHDENVAINPSNAPLKGDQFASLGVSSLLVSHLEQKMRIKKPTSIQKQAIPQIIGNAGKNDFFIHAQTGSGKTLSYLLPIISTILNMDTHVDRTSGAFALVIAPTRELASQIYHVCSTLVSCCHYLVPCLLIGGERKKSEKARLRKGCNFIIGTPGRVLDHLQNTKVIKEQLSQSLRYIVLDEGDKLMELGFDETISEIIKIVHDIPINSEKFPKLPHKLVHMLCSATLTDGVNRLRNVALKDYKLISNGTKKDSDIVTVAPDQLLQRITIVPPKLRLVTLAATLNNITKDFIASGQQSKTLRTIVFVSCSDSVEFHYDAFSGSDGHHKNLTGDSVRLLTKGNTMFPCFSDSRDPDVVIYKLHGSLSQQMRTSTLQHFARDNEATKGKHLIMFCTDVASRGLDLPHVGSVIELDPPFAVEDHLHRVGRTARAGEKGESLLFLLPGEEEKYMDYIQPYHPMGWELLKFDKEILMPAFKDVNVNRNDKFIRKDEKSSKNKDVGDKEYEWDTNATTWHLNIERRVVGDSAFKNLAVKGFISHVRAYATHISQEKKFFNVKFLHLGHLAKSFGLRERPKAMGLQSSKDGNSEKKPTKENSKNKMFRMARMAEKQIASEFNY
